# PubChem BioAssay AID1224830 – NIAID, 2016
# Screen: 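Regulators of TLR4 signalling towards TNF-alpha in macrophage-like cells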 (primary screen)
# Cells: human THP-1 monocytic leukaemia cells, TNF dual-luciferase reporter clone, PMA-differentiated to macrophage-like cells
# Reagent: siRNA pool against human genes, 50 nM
# Time to read-out: LPS for 4 h, given about 3 days after siRNA transfection
# Conditions: bacterial LPS (TLR4 ligand), 10 ng/ml
# Measurement: 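TNF firefly reporter luminescence divided by renilla, normalised to the plate median, then turned into a robust z-score for each replicate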
# Scale: TNF reporter robust z-score: higher = stronger TNF reporter response to LPS
# Rule for the call: 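Each well counts as active if its z-score is over 2.8 or under -1.5; controls are left without a call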
# The deposit covers about 18,000 reagents; shown is a part drawn at random. Of all reagents, about 2,900 (16%) are marked active. 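Calls are made per well; low scores hint the gene aids the LPS response, high scores that it dampens it.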 Repeated entries: four replicate wells of each siRNA pool.
gene,TNF reporter robust z-score,activity call
NELL2,-1.19,inactive
NELL2,-0.65,inactive
NELL2,-0.77,inactive
NELL2,-0.45,inactive
SMPDL3A,-0.72,inactive
SMPDL3A,-0.18,inactive
SMPDL3A,-0.41,inactive
SMPDL3A,-0.5,inactive
HESX1,0.93,inactive
HESX1,1.44,inactive
HESX1,1.39,inactive
HESX1,2.77,inactive
CPNE8,3.11,active
CPNE8,4.34,active
CPNE8,3.09,active
CPNE8,3.03,active
IQCN,-1.1,inactive
IQCN,-0.95,inactive
IQCN,-0.8,inactive
IQCN,-0.74,inactive
OR13D1,0.74,inactive
OR13D1,0.88,inactive
OR13D1,1.09,inactive
OR13D1,1.13,inactive
RRBP1,0.75,inactive
RRBP1,0.58,inactive
RRBP1,-0.17,inactive
RRBP1,-0.49,inactive
COL22A1,-0.34,inactive
COL22A1,-1.02,inactive
COL22A1,0.73,inactive
COL22A1,-0.24,inactive
BRWD3,-0.42,inactive
BRWD3,0.33,inactive
BRWD3,0.51,inactive
BRWD3,0.7,inactive
LINC02915,-1,inactive
LINC02915,-0.14,inactive
LINC02915,0.2,inactive
LINC02915,-0.3,inactive
PXDN,-0.96,inactive
PXDN,-0.99,inactive
PXDN,-1.48,inactive
PXDN,-0.61,inactive
IGBP1,-0.98,inactive
IGBP1,-0.89,inactive
IGBP1,0.96,inactive
IGBP1,-0.1,inactive
LSM4,-0.32,inactive
LSM4,-1.35,inactive
LSM4,-1.68,active
LSM4,-0.27,inactive
ITGA7,0.34,inactive
ITGA7,7.82,active
ITGA7,-0.28,inactive
ITGA7,0.64,inactive
BAK1,2.78,inactive
BAK1,0.66,inactive
BAK1,1.7,inactive
BAK1,0.21,inactive
SPATA13,-0.78,inactive
SPATA13,-0.76,inactive
SPATA13,-0.42,inactive
SPATA13,-0.43,inactive
GON7,0.04,inactive
GON7,1.95,inactive
GON7,0.92,inactive
GON7,0.91,inactive
NKD1,1.21,inactive
NKD1,1.16,inactive
NKD1,0.21,inactive
NKD1,-0.19,inactive
CAMKV,0.11,inactive
CAMKV,0.66,inactive
CAMKV,0.13,inactive
CAMKV,-0.02,inactive
PSMC1,-2.27,active
PSMC1,-2.16,active
PSMC1,-2.13,active
PSMC1,-2.02,active
SOX5,-1.35,inactive
SOX5,-0.95,inactive
SOX5,-0.76,inactive
SOX5,-0.15,inactive
OR7A5,1.43,inactive
OR7A5,0.88,inactive
OR7A5,1.12,inactive
OR7A5,0.03,inactive
SLC26A2,-1.02,inactive
SLC26A2,-0.46,inactive
SLC26A2,-1.34,inactive
SLC26A2,-1.31,inactive
SPATA22,-1.54,active
SPATA22,-0.63,inactive
SPATA22,-0.35,inactive
SPATA22,-1.03,inactive
CDC50A,0.03,inactive
CDC50A,-0.36,inactive
CDC50A,0.09,inactive
CDC50A,0.19,inactive
GREB1,0.1,inactive
GREB1,0.98,inactive
GREB1,0.33,inactive
GREB1,0.68,inactive
ST8SIA5,0.63,inactive
ST8SIA5,1.17,inactive
ST8SIA5,1.13,inactive
ST8SIA5,1.36,inactive
PDE6D,-0.4,inactive
PDE6D,0.12,inactive
PDE6D,-0.42,inactive
PDE6D,-0.91,inactive
STRIP1,0.23,inactive
STRIP1,1.33,inactive
STRIP1,0.3,inactive
STRIP1,2,inactive
HTN1,0.5,inactive
HTN1,0.37,inactive
HTN1,-0.05,inactive
HTN1,-0.61,inactive
RPL3L,-0.67,inactive
RPL3L,-1.41,inactive
RPL3L,-1.62,active
RPL3L,-0.89,inactive
SHISA5,-0.9,inactive
SHISA5,-1.72,active
SHISA5,-1.07,inactive
SHISA5,-1.33,inactive
MRPL18,0.27,inactive
MRPL18,2.39,inactive
MRPL18,1.05,inactive
MRPL18,3,active
PRH2,-0.42,inactive
PRH2,-0.4,inactive
PRH2,-0.7,inactive
PRH2,-0.74,inactive
GP9,-0.51,inactive
GP9,-0.11,inactive
GP9,-0.71,inactive
GP9,-0.76,inactive

A portion from the list above, for reference:
gene,TNF reporter robust z-score,activity call
MRPL18,1.05,inactive
MRPL18,3,active
PRH2,-0.42,inactive
PRH2,-0.4,inactive
PRH2,-0.7,inactive
PRH2,-0.74,inactive
GP9,-0.51,inactive
GP9,-0.11,inactive
GP9,-0.71,inactive
GP9,-0.76,inactive
